These are yes or no findings as the source states them, for the method shown. Binding seen in cells or lysates may run through a third protein. Some results given as binding are weak or reduced against the parent protein; the word gives no strength.
Target: PTEN-L:EGFP (human) (UniProt P60484)
Test: proximity ligation; Duolink PLA with anti-GAB2 and anti-PTEN-L antibodies in fixed, permeabilised primary neurons at DIV 9 treated with PBS for 60 min; proximities below 40 nm

The chains behind the UniProt entries cited, without tags or fusion partners.
UniProt Q9Z1S8: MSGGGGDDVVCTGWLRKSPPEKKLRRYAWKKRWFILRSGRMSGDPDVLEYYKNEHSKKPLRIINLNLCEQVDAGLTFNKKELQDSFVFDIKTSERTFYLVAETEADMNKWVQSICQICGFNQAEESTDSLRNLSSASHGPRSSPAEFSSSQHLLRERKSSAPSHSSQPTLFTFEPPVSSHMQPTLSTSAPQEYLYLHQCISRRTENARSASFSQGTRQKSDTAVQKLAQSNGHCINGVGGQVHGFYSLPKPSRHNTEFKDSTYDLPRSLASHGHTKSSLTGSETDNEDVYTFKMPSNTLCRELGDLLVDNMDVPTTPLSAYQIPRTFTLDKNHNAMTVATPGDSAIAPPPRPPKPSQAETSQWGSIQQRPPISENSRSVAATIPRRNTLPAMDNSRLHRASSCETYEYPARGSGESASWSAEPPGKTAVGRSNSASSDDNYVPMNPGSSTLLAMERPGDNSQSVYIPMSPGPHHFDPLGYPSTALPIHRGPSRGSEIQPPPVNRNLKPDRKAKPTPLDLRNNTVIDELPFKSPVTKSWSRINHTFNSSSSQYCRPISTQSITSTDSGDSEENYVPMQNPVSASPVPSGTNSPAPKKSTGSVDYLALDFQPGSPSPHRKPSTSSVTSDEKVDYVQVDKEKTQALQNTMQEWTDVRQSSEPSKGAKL

For “GRB2-associated-binding protein 2 (from UniProt Q9Z1S8 1-665)”, the binding was “binds”.
